Assay results from the supplement of paper PMC6411743.
± gives the standard deviation of the averaged measurements. This is a selection; strong and weak results do not stand in their true shares.

Sequences of proteins named here, by UniProt entry; tags and fusion partners are left off. A change or cut given only in a name is not applied to a line headed by its entry.
UniProt P04818: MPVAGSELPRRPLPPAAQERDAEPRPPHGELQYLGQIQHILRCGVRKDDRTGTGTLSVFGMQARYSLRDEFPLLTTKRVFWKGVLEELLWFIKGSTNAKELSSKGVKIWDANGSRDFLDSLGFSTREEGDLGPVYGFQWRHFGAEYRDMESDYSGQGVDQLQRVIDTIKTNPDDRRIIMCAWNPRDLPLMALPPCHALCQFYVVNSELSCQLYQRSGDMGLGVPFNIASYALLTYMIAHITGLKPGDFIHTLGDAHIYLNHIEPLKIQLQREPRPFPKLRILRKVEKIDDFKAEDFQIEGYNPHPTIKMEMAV
UniProt P0C0S5, whole entry, looked up: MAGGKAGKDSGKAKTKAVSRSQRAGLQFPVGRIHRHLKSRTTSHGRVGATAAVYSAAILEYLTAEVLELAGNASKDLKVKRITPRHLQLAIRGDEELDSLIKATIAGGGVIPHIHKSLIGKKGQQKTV
UniProt Q71UI9, whole entry, looked up: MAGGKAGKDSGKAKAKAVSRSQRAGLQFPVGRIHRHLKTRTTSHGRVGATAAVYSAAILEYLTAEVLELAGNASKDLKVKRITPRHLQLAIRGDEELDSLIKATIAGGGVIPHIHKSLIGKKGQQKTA
UniProt P05141: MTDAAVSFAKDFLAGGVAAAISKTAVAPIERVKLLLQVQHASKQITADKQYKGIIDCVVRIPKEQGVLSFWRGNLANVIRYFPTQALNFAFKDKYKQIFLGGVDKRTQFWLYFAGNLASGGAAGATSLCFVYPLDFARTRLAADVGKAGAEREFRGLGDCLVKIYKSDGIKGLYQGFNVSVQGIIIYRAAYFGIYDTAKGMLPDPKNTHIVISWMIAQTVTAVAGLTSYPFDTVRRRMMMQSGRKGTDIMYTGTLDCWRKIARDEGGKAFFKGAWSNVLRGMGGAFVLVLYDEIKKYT
UniProt P09622, whole entry: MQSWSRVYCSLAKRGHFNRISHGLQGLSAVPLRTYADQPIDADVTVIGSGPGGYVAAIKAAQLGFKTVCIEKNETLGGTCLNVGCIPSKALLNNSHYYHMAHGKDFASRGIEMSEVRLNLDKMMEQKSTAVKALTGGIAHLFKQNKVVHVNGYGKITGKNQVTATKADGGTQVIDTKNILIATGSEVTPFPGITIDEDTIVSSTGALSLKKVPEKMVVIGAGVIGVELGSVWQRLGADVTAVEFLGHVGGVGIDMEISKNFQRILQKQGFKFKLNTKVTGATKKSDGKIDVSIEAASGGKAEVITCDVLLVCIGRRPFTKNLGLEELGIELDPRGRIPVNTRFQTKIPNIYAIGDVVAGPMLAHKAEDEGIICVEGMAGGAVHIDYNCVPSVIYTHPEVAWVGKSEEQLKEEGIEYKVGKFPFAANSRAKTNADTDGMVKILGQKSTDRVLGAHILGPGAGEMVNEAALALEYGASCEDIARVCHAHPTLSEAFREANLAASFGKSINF
UniProt P07738: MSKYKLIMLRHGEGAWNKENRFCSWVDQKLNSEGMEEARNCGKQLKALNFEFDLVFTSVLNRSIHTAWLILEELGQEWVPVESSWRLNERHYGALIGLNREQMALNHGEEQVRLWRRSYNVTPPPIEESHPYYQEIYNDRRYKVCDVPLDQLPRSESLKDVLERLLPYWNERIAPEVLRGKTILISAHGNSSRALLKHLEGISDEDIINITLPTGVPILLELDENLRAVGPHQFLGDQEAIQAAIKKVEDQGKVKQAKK
UniProt P06753, whole entry: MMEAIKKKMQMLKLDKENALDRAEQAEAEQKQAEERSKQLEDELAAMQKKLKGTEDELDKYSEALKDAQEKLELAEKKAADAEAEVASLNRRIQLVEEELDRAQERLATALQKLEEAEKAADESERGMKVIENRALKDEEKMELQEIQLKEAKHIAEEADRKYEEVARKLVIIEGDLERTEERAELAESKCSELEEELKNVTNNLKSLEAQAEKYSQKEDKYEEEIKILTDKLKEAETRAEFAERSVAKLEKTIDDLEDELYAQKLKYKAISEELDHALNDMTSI
UniProt P05165: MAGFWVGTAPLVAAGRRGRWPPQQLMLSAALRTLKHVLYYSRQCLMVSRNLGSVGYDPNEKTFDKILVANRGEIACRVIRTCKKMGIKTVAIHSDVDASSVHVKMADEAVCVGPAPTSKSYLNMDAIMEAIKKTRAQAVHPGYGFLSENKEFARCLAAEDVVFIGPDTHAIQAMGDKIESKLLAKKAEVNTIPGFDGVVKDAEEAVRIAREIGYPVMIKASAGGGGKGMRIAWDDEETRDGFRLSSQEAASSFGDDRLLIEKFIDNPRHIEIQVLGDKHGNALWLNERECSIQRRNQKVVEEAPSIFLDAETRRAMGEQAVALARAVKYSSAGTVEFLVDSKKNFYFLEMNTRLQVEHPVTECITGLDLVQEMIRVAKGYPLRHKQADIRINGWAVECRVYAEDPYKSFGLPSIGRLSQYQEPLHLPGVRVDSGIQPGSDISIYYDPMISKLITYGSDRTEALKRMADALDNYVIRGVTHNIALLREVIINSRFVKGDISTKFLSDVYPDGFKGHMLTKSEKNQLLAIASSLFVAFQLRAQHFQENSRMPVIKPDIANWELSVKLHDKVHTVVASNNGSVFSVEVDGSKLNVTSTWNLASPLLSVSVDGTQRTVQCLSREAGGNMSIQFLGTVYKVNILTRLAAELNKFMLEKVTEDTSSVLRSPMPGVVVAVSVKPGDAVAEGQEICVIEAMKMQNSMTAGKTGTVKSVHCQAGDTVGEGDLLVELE
UniProt P11441: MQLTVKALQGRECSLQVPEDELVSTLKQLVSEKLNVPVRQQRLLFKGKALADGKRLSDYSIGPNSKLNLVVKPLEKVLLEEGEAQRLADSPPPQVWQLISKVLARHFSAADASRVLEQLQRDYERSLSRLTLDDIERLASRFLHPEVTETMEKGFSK
UniProt P07108: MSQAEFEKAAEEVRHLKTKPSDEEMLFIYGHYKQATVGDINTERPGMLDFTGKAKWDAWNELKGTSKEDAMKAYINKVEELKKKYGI
UniProt P06729: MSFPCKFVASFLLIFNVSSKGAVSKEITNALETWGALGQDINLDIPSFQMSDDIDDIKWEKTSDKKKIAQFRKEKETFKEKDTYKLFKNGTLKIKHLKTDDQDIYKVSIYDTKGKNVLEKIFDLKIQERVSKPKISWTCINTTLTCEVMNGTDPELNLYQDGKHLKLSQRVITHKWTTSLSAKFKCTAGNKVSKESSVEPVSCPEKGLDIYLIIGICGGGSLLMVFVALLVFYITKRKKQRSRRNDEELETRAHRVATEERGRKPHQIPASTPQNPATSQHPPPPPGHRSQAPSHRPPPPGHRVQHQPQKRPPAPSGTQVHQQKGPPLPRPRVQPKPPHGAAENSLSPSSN
UniProt P11413, whole entry: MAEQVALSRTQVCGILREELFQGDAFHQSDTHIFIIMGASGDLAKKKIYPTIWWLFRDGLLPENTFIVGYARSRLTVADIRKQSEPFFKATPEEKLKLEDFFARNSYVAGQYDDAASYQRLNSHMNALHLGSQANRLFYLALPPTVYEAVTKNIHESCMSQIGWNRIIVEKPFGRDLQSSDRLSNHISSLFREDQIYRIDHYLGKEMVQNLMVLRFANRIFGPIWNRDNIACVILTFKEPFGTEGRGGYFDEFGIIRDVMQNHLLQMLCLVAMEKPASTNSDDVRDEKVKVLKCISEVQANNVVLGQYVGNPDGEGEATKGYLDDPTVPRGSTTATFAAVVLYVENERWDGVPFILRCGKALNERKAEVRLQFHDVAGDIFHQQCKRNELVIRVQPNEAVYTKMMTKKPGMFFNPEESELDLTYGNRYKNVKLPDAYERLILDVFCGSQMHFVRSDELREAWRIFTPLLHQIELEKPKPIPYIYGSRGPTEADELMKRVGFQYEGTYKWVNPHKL
UniProt P10114: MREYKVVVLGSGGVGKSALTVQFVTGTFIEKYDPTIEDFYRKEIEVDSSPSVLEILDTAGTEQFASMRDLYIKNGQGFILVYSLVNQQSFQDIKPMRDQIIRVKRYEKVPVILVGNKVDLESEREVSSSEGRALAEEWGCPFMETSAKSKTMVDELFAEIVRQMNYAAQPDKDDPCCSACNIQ
UniProt P14209: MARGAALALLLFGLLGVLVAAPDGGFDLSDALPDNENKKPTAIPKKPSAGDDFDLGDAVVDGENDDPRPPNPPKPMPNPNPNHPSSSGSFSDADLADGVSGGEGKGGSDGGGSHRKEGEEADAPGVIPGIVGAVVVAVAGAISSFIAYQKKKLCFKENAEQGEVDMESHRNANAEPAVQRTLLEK
UniProt P35520: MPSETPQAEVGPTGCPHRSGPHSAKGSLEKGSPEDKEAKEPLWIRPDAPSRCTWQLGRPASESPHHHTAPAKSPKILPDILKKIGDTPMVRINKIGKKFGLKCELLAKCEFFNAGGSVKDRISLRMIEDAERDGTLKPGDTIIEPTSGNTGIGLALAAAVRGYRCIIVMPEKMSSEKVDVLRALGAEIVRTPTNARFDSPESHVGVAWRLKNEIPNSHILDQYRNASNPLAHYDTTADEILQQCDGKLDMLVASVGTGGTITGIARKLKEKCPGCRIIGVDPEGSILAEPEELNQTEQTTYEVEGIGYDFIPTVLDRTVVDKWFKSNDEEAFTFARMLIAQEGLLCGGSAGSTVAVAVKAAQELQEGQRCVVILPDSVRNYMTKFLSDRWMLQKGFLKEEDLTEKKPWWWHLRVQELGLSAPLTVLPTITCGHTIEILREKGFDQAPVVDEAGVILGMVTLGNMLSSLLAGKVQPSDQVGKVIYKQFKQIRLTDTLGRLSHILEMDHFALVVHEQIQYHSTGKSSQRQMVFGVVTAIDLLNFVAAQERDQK
UniProt P15374: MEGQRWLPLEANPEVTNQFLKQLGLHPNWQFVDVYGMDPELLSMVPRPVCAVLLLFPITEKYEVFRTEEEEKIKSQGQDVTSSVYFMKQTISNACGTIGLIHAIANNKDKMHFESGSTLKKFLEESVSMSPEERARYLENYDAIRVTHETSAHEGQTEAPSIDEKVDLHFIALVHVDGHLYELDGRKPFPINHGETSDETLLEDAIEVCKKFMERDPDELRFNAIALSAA
UniProt O95980: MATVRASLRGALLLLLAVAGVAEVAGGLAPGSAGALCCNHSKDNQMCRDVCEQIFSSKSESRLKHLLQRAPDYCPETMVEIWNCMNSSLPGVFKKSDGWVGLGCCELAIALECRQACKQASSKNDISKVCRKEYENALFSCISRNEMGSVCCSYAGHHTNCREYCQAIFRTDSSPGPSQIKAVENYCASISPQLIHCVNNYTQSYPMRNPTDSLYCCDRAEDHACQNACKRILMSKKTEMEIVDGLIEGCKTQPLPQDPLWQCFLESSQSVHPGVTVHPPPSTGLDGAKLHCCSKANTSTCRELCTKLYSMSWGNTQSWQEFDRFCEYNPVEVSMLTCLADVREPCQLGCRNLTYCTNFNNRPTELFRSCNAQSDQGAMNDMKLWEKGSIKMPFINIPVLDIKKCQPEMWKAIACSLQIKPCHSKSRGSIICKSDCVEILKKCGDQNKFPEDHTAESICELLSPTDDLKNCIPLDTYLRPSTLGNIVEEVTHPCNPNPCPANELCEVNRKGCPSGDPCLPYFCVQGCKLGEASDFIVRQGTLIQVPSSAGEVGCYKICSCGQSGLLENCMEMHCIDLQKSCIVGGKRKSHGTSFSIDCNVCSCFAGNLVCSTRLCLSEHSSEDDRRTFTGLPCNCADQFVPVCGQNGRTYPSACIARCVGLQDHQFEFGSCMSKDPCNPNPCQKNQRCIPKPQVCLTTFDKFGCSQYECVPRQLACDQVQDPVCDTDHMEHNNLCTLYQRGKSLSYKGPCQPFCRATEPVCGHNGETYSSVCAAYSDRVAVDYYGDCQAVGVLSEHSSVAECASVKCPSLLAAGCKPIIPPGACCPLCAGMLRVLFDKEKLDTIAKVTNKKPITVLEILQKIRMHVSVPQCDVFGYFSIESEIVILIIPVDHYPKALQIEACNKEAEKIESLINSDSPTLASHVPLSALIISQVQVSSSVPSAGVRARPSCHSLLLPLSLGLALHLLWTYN
UniProt P00390: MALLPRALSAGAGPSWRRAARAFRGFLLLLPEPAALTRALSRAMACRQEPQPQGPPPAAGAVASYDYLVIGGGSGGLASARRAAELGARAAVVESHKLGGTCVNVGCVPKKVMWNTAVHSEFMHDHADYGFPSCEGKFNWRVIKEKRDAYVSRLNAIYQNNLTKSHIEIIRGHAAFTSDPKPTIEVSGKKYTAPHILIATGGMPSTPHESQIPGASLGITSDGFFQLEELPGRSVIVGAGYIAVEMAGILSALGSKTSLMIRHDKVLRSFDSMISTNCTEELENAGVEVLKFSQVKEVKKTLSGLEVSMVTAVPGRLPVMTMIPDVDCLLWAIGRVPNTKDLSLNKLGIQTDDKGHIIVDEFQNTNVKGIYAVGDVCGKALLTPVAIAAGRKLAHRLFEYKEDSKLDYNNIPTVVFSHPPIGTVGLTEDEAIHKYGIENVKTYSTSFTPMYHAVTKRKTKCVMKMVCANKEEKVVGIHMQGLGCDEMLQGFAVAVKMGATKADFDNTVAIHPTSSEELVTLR
UniProt O96033: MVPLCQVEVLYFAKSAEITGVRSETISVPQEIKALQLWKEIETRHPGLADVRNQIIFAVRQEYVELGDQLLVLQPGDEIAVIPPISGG
UniProt P14927: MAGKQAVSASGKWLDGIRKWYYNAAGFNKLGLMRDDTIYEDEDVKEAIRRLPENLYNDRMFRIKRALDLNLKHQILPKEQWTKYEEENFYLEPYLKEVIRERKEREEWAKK

Compound: Nc1ncnc2c1ncn2[C@@H]1O[C@H](COP(=O)(O)OP(=O)(O)OP(=O)(O)O)[C@@H](O)[C@H]1O [adenosine triphosphate]
Assay: NP40-soluble protein abundance relative to vehicle (solubility fold change) (ratio); higher = more soluble protein in presence of ATP
Method in brief: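 Each value is a fold change relative to the detergent-processed vehicle, calculated per replicate from vsn-normalised intensities. Jurkat crude lysate received eight concentrations (0.1 to 10 mM) for 10 min at room temperature and 3 min at 37 °C, then was solubilised in 0.8% NP40 with benzonase (60 min, 4 °C). The ultracentrifuged supernatant was TMT-labelled and run by LC-MS/MS in three independent experiments.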

Target	NP40-soluble protein abundance (concentration: 1mM)	NP40-soluble protein abundance (concentration: 2mM)	NP40-soluble protein abundance (concentration: 4mM)	NP40-soluble protein abundance (concentration: 6mM)	NP40-soluble protein abundance (concentration: 8mM)	NP40-soluble protein abundance (concentration: 10mM)
FADS2 (UniProt O95864)	1.04 ± 0.069	0.99 ± 0.049	0.973 ± 0.04	0.958 ± 0.066	1.03 ± 0.042	1.02 ± 0.05
RAC2 (UniProt P15153)	0.958 ± 0.034	0.955 ± 0.038	0.904 ± 0.07	0.937 ± 0.077	0.912 ± 0.083	0.921 ± 0.031
TYMS (UniProt P04818)	0.96 ± 0.069	0.948 ± 0.068	0.937 ± 0.045	0.882 ± 0.078	0.962 ± 0.053	0.937 ± 0.063
IFNGR1 (UniProt P15260)	0.97 ± 0.038	0.9578 ± 0.0042	0.938 ± 0.079	1.01 ± 0.029	0.95 ± 0.047	0.905 ± 0.043
P0C0S5 and related entries (UniProt Q71UI9+P0C0S5)	0.966 ± 0.096	0.942 ± 0.078	0.971 ± 0.094	1 ± 0.042	1.02 ± 0.081	1.07 ± 0.17
MGMT (UniProt P16455)	0.932 ± 0.075	0.943 ± 0.046	0.972 ± 0.045	0.934 ± 0.066	0.933 ± 0.04	0.897 ± 0.097
UniProt P11940 and related entries	1.02 ± 0.08	1.04 ± 0.062	1.03 ± 0.097	1.09 ± 0.05	1.04 ± 0.093	1.05 ± 0.065
SLC25A5 (UniProt P05141)	0.99 ± 0.084	0.995 ± 0.036	0.999 ± 0.033	0.97 ± 0.018	1.02 ± 0.038	1.09 ± 0.059
GLUL (UniProt P15104)	1 ± 0.025	0.963 ± 0.026	0.95 ± 0.027	0.984 ± 0.027	0.965 ± 0.012	0.939 ± 0.022
DLD (UniProt P09622)	1.04 ± 0.019	1.03 ± 0.052	1.01 ± 0.066	1.01 ± 0.057	1.03 ± 0.071	1.01 ± 0.093
SP1 (UniProt P08047)	0.946 ± 0.045	0.969 ± 0.016	0.976 ± 0.046	1.01 ± 0.041	0.946 ± 0.034	0.947 ± 0.031
UniProt P13929 and related entries	0.999 ± 0.053	0.98 ± 0.062	0.948 ± 0.053	0.985 ± 0.072	0.979 ± 0.048	0.98 ± 0.045
HNRNPL (UniProt P14866)	1.1 ± 0.05	1.12 ± 0.044	1.18 ± 0.06	1.28 ± 0.079	1.3 ± 0.062	1.35 ± 0.11
BPGM (UniProt P07738)	1 ± 0.046	0.976 ± 0.052	0.998 ± 0.07	0.967 ± 0.031	0.943 ± 0.031	0.952 ± 0.073
GTF2F2 (UniProt P13984)	0.973 ± 0.013	0.981 ± 0.013	0.964 ± 0.038	1 ± 0.032	0.961 ± 0.035	0.965 ± 0.039
UniProt P04921 and related entries	0.824 ± 0.016	0.76 ± 0.06	0.8462 ± 0.0068	0.853 ± 0.17	0.752 ± 0.034	0.707 ± 0.11
UniProt P06753-2|P06753-3|P06753-5|P06753-6|J3KN67	1.06 ± 0.1	1.03 ± 0.13	1.13 ± 0.068	1.19 ± 0.058	1.33 ± 0.28	0.924 ± 0.41
SSB (UniProt P05455)	0.88 ± 0.067	0.9378 ± 0.0091	0.881 ± 0.031	0.939 ± 0.089	0.887 ± 0.036	0.883 ± 0.066
P0CG12 and related entries (UniProt P0CG13)	0.958 ± 0.044	0.964 ± 0.034	0.966 ± 0.053	0.927 ± 0.031	0.927 ± 0.028	0.938 ± 0.059
UniProt O96000 and related entries	1.03 ± 0.18	0.898 ± 0.089	0.918 ± 0.1	0.911 ± 0.14	0.934 ± 0.079	0.85 ± 0.15

Target	NP40-soluble protein abundance (concentration: 1mM)	NP40-soluble protein abundance (concentration: 2mM)	NP40-soluble protein abundance (concentration: 4mM)	NP40-soluble protein abundance (concentration: 6mM)	NP40-soluble protein abundance (concentration: 8mM)	NP40-soluble protein abundance (concentration: 10mM)
UniProt P05165 and related entries	1.05 ± 0.034	1.01 ± 0.06	1.01 ± 0.026	0.954 ± 0.066	1.01 ± 0.09	1.01 ± 0.062
UBL4A (UniProt P11441)	0.923 ± 0.072	0.918 ± 0.021	0.914 ± 0.044	0.914 ± 0.11	0.904 ± 0.038	0.841 ± 0.058
UniProt P13473-2|P13473 and related entries	0.938 ± 0.056	0.916 ± 0.026	0.91 ± 0.03	0.992 ± 0.032	0.881 ± 0.018	0.834 ± 0.05
DBI (UniProt P07108)	0.931 ± 0.14	0.929 ± 0.12	0.965 ± 0.11	1.05 ± 0.12	0.886 ± 0.049	0.867 ± 0.064
ALDOC (UniProt P09972)	1.01 ± 0.034	1.01 ± 0.037	0.988 ± 0.047	1 ± 0.049	0.968 ± 0.054	0.957 ± 0.05
UniProt P06729	0.888 ± 0.049	0.934 ± 0.015	0.894 ± 0.012	0.973 ± 0.0075	0.877 ± 0.026	0.912 ± 0.036
UniProt P15923-2|X6REB3 and related entries	0.91 ± 0.021	0.917 ± 0.031	0.9 ± 0.032	0.921 ± 0.039	0.8683 ± 0.0084	0.871 ± 0.044
UniProt P11413 and related entries	1.01 ± 0.15	1 ± 0.12	0.969 ± 0.1	0.925 ± 0.16	1.01 ± 0.085	0.972 ± 0.071
SLC25A4 (UniProt P12235)	0.958 ± 0.17	0.925 ± 0.076	0.924 ± 0.097	0.93 ± 0.076	0.945 ± 0.046	1 ± 0.088
TOMM40 (UniProt O96008)	0.968 ± 0.063	0.985 ± 0.064	0.957 ± 0.049	0.931 ± 0.074	0.968 ± 0.036	0.965 ± 0.033
UQCRH (UniProt P07919)	0.97 ± 0.12	0.93 ± 0.1	0.801 ± 0.06	0.66 ± 0.29	0.515 ± 0.018	0.471 ± 0.15
CKB (UniProt P12277)	0.932 ± 0.12	1.003 ± 0.0013	1.04 ± 0.1	1.01 ± 0.036	0.996 ± 0.019	1 ± 0.055
RAP2A (UniProt P10114)	1 ± 0.25	1.12 ± 0.22	1.13 ± 0.21	0.974 ± 0.25	1.03 ± 0.26	1.05 ± 0.19
UniProt P14209 and related entries	0.912 ± 0.2	0.932 ± 0.16	0.996 ± 0.077	1.05 ± 0.19	0.843 ± 0.12	0.97 ± 0.11
P0DN79 and related entries (UniProt P35520+P0DN79)	0.948 ± 0.049	0.919 ± 0.03	0.943 ± 0.05	0.904 ± 0.086	0.932 ± 0.055	0.949 ± 0.043
LGALS1 (UniProt P09382)	1.02 ± 0.14	0.994 ± 0.069	0.978 ± 0.088	1.01 ± 0.092	0.96 ± 0.086	0.946 ± 0.062
ITGA5 (UniProt P08648)	0.96 ± 0.06	0.9552 ± 0.0059	0.974 ± 0.026	0.955 ± 0.06	0.955 ± 0.057	0.876 ± 0.049
SLC2A1 (UniProt P11166)	0.939 ± 0.088	0.954 ± 0.043	0.956 ± 0.064	0.962 ± 0.036	0.929 ± 0.035	0.95 ± 0.022
UniProt P04053 and related entries	1.08 ± 0.12	1.05 ± 0.073	1.07 ± 0.038	0.96 ± 0.13	1.09 ± 0.022	1.1 ± 0.061
UniProt P14316 and related entries	0.954 ± 0.019	0.952 ± 0.06	0.916 ± 0.037	0.984 ± 0.058	0.945 ± 0.048	0.919 ± 0.013

Target	NP40-soluble protein abundance (concentration: 1mM)	NP40-soluble protein abundance (concentration: 2mM)	NP40-soluble protein abundance (concentration: 4mM)	NP40-soluble protein abundance (concentration: 6mM)	NP40-soluble protein abundance (concentration: 8mM)	NP40-soluble protein abundance (concentration: 10mM)
UCHL3 (UniProt P15374)	1.08 ± 0.011	1.06 ± 0.057	1.02 ± 0.049	1.06 ± 0.027	1.02 ± 0.085	0.979 ± 0.055
UniProt P08236 and related entries	1.02 ± 0.1	0.994 ± 0.035	0.957 ± 0.034	0.9263 ± 0.0086	0.965 ± 0.036	0.979 ± 0.024
UniProt P08240	1.05 ± 0.058	1.05 ± 0.069	1.06 ± 0.07	1.05 ± 0.088	1.05 ± 0.049	1.07 ± 0.062
UniProt O95980	1.05 ± 0.027	1.02 ± 0.096	1.02 ± 0.089	0.994 ± 0.031	0.987 ± 0.098	1.02 ± 0.098
UniProt P12931 and related entries	1.01 ± 0.14	1.01 ± 0.057	1.01 ± 0.059	0.938 ± 0.11	0.963 ± 0.029	1.02 ± 0.034
UniProt P06213 and related entries	0.998 ± 0.022	1.02 ± 0.025	1.05 ± 0.025	0.961 ± 0.07	1 ± 0.028	1.01 ± 0.034
UROD (UniProt P06132)	0.9889 ± 0.0093	0.9953 ± 0.0074	0.98 ± 0.06	0.996 ± 0.043	0.988 ± 0.082	0.961 ± 0.05
UniProt P14151 and related entries	0.976 ± 0.058	0.9443 ± 0.0048	0.945 ± 0.03	1.04 ± 0.046	0.951 ± 0.016	0.887 ± 0.042
UniProt P00519-2|P00519	1.07 ± 0.042	1.08 ± 0.091	1.09 ± 0.076	1.09 ± 0.068	1.02 ± 0.059	1.07 ± 0.078
HEXB (UniProt P07686)	0.963 ± 0.031	0.981 ± 0.033	0.958 ± 0.039	0.946 ± 0.041	0.938 ± 0.056	0.944 ± 0.028
UniProt P00390 and related entries	1 ± 0.062	0.97 ± 0.072	0.935 ± 0.041	0.93 ± 0.1	0.987 ± 0.046	0.965 ± 0.061
O96007 and related entries (UniProt O96033+O96007)	0.941 ± 0.035	0.977 ± 0.037	0.933 ± 0.011	0.949 ± 0.023	0.914 ± 0.036	0.9135 ± 0.0052
FTH1 (UniProt P02794)	1.01 ± 0.17	0.965 ± 0.14	0.955 ± 0.11	1.01 ± 0.22	0.985 ± 0.11	0.916 ± 0.17
H2AFX (UniProt P16104)	0.857 ± 0.22	0.809 ± 0.15	0.778 ± 0.15	0.892 ± 0.15	0.592 ± 0.07	0.973 ± 0.31
ANXA3 (UniProt P12429)	0.9552 ± 0.0091	0.992 ± 0.012	0.952 ± 0.032	0.986 ± 0.033	0.912 ± 0.033	0.922 ± 0.036
UQCRB (UniProt P14927)	0.953 ± 0.087	0.934 ± 0.05	0.913 ± 0.049	0.955 ± 0.072	0.908 ± 0.019	0.836 ± 0.063
ENO1 (UniProt P06733)	0.893 ± 0.074	1.05 ± 0.089	0.847 ± 0.056	1.04 ± 0.12	0.992 ± 0.11	0.837 ± 0.027
UniProt P04035 and related entries	0.98 ± 0.04	1 ± 0.067	1.04 ± 0.036	0.992 ± 0.12	1.02 ± 0.11	1.08 ± 0.075
UniProt P00387 and related entries	1.03 ± 0.14	1.01 ± 0.11	0.978 ± 0.06	0.873 ± 0.17	1.01 ± 0.055	0.997 ± 0.064
ENO2 (UniProt P09104)	1.02 ± 0.041	0.994 ± 0.061	0.971 ± 0.049	0.972 ± 0.092	0.979 ± 0.058	0.96 ± 0.074

Quoted at random: 3 records from the list.
Target	NP40-soluble protein abundance (concentration: 1mM)	NP40-soluble protein abundance (concentration: 2mM)	NP40-soluble protein abundance (concentration: 4mM)	NP40-soluble protein abundance (concentration: 6mM)	NP40-soluble protein abundance (concentration: 8mM)	NP40-soluble protein abundance (concentration: 10mM)
GLUL (UniProt P15104)	1 ± 0.025	0.963 ± 0.026	0.95 ± 0.027	0.984 ± 0.027	0.965 ± 0.012	0.939 ± 0.022
RAP2A (UniProt P10114)	1 ± 0.25	1.12 ± 0.22	1.13 ± 0.21	0.974 ± 0.25	1.03 ± 0.26	1.05 ± 0.19
TYMS (UniProt P04818)	0.96 ± 0.069	0.948 ± 0.068	0.937 ± 0.045	0.882 ± 0.078	0.962 ± 0.053	0.937 ± 0.063
